These results are taken from patent publication US8470587B2, “129Xe biosensors and their use” (The Trustees of the University of Pennsylvania, priority 2006, dated 2013).

The target in the experiment is T1, MMP-7 (recombinant, catalytic domain) (UniProt P09237).
T1 sequence (looked up): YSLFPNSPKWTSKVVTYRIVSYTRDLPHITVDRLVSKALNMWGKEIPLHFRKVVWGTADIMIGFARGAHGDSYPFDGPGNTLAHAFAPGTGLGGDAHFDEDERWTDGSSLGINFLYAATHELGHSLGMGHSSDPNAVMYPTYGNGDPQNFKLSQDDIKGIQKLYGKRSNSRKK
The experiment can be described thus: Michaelis-Menten kinetics, HPLC assay.

Results are given in words; binding and its absence hold for the method and conditions named. Some entries that bind do so weakly or less than the wild type.

Consider RKRPLALWRSRK (N-terminal 3-azidopropionic acid (N3-CH2CH2-CO-)) [azidopeptide N3-CH2CH2-CONH2-…], for which the binding entry is recorded as “binds”.
